Inconclusive results, whose numbers are uncertain, are shown with a selection of clear calls. For part of these data: Where the call is inconclusive, the potency comes from a doubtful curve fit. Active and inactive are the calls of the source. Unless noted, calls come from the whole dose curve; as a rule, active = well fitted curve in the direction sought with a large enough effect; inconclusive = small, poorly fitted or top-dose-only effect, or another doubt; inactive = no such curve, though single readings can be large; an effect the other way counts as inactive or inconclusive.
Assays:
[1] = qHTS of pediatric cancer cell lines to identify multiple opportunities for drug repurposing: Confirmatory screen for U-2 OS cells (AID 1347122); conditions: U-2 OS osteosarcoma cell viability; series mostly up to 45.9 µM; note: nearly all actives have a fitted effect of over 65% in size
Summary of the method: (§1)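 Cells (500-1,000/well) rested 5 h, then received compounds for 48 h; metabolically active cells were measured by CellTiter-Glo luminescence. Final concentrations spanned up to 46 µM (MIPE, 11-point) or 0.59 nM-46 µM (NPC, 8-point) in primary screens, 11-point in follow-ups.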

[2] = qHTS of pediatric cancer cell lines to identify multiple opportunities for drug repurposing: Confirmatory screen for RD cells (AID 1347124); conditions: RD rhabdomyosarcoma cell viability; series mostly up to 45.9 µM;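 note: cells exposed to compound for 48 h before viability readout; nearly all actives have a fitted effect of over 65% in size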
Summary of the method: as §1

[3] = qHTS of pediatric cancer cell lines to identify multiple opportunities for drug repurposing: Confirmatory screen for Rh18 cells (AID 1347125); conditions: Rh18 rhabdomyosarcoma cells, viability; series mostly up to 45.9 µM; note: nearly all actives have a fitted effect of over 55% in size
Summary of the method: as §1

[4] = Quantitative High-Throughput drug screen in 47 multiple myeloma cell lines against the NCATS MIPE library collection: JIM3_ECACC cell viability assay (AID 1918963; note: nearly all actives have a fitted effect of over 35% in size); conditions: JIM3 myeloma viability, CellTiter-Glo ATP, 48 h; series mostly up to 45.8 µM
Summary of the method: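 Luminescent ATP measurement with CellTiter-Glo gives viability, scaled between DMSO-only wells (100%) and media-only wells (0%). Cells, 500 per well, faced library compounds for 48 hours at 37C.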

[5] = Quantitative High-Throughput drug screen in 47 multiple myeloma cell lines against the NCATS MIPE library collection: LP1_DSMZ cell viability assay (AID 1918982); conditions: LP1 myeloma viability, CellTiter-Glo ATP luminescence, 48 h; series mostly up to 45.8 µM; note: nearly all actives have a fitted effect of over 35% in size
Summary of the method: (§2)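 Inhibition of viability over 48 h was scored by ATP content (CellTiter-Glo) in 500-cell wells. Zero and full viability were defined by media-only and DMSO-only wells.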

[6] = Quantitative High-Throughput drug screen in 47 multiple myeloma cell lines against the NCATS MIPE library collection: KMS28PE_JCRB cell viability assay (AID 1918983); conditions: KMS28PE multiple myeloma viability, CellTiter-Glo ATP, 48 h; series mostly up to 45.8 µM; note: nearly all actives have a fitted effect of over 35% in size
Summary of the method: as §2

[7] = Quantitative High-Throughput drug screen in 47 multiple myeloma cell lines against the NCATS MIPE library collection: OPM2_DSMZ cell viability assay (AID 1919872); conditions: OPM2 myeloma viability, CellTiter-Glo ATP luminescence, 48 h; series mostly up to 45.8 µM; note: nearly all actives have a fitted effect of over 30% in size
Summary of the method: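 Approved and investigational drugs from MIPE 4.0 were added by pin tool to 500 cells per well. After 48 hours at 37C, ATP-based CellTiter-Glo luminescence indicated remaining viability.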

[8] = Quantitative High-Throughput drug screen in 47 multiple myeloma cell lines against the NCATS MIPE library collection: KMS11_JCRBsus cell viability assay (AID 1919873); conditions: KMS11 myeloma viability, CellTiter-Glo ATP luminescence, 48 h; series mostly up to 45.8 µM; note: nearly all actives have a fitted effect of over 50% in size
Summary of the method: as §2

[9] = qHTS for identification of novel therapeutic agents for treatment of microphthalmiaassociated transcription factor (MiT) renal cell carcinoma (RCC) (AID 1963991; calls by dose curve); conditions: TFE3-RCC UOK109 viability, CellTiter-Glo, 48 h; active = Z-AUC below -0.8 in all three lines
Summary of the method: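 Three TFE3-fusion RCC cell lines (UOK109, UOK124, UOK145), 500 cells/well, were exposed to the 1912-compound MIPE 4.0 library for 48 hours at 37 C. Viability was read by CellTiter-Glo luminescence, normalised to DMSO (100%) and empty wells (0%), with 11-concentration curve fits.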

Measured: Potency
Potency is the fitted concentration of half-maximal effect.

C[C@@H]1O[C@@H](O[C@H]2CC[C@@]3(C)[C@H](CC[C@@H]4[C@H]3C[C@@H](O)[C@]3(C)[C@@H](C5=CC(=O)OC5)CC[C@]43O)C2)C[C@H](O)[C@@H]1O[C@H]1C[C@H](O)[C@H](O[C@H]2C[C@H](O)[C@@H](O)[C@@H](C)O2)[C@H](C)O1 (stereo in doubt)
inconclusive: [1] 7.6 nM [cytotoxic, full curve, poor fit] | [2] 8.5 nM [cytotoxic, full curve, poor fit] | [3] 95.5 nM [cytotoxic, full curve]
active: [4] 191 nM | [5] 121 nM | [6] 152 nM | [7] 121 nM | [8] 191 nM | [9] 215 nM
